Measurements reported in the supplement of paper PMC3047530.
± gives the standard deviation of the averaged measurements. This is one part of the list. Most values come without repeats; read them as rough.

Test system: Geomyces destructans
Experiment: growth inhibition relative to DMSO control; higher = stronger growth inhibition
Settings: 10 µM; 15 °C; incubation time 10 days

| Compound | growth inhibition [%] |
| --- | --- |
| C=C1C2=CC(=O)O[C@@H](c3ccoc3)[C@]2(C)CC[C@@H]1[C@@]1(C)C=CC(=O)C(C)(C)[C@@H]1CC(=O)OC | -22.3 |
| CC(C)=CCc1c2c(c3occ(-c4ccc(O)cc4)c(=O)c3c1O)C=CC(C)(C)O2 | -3.94 ± 3.2 |
| COC(=O)C1=C(C)NC(C)=C(C(=O)OCCN(C)Cc2ccccc2)C1c1cccc([N+](=O)[O-])c1 (stereo not drawn) | -26 |
| O=C1C(O)=C([C@H]2CC[C@H](c3ccc(Cl)cc3)CC2)C(=O)c2ccccc21 | -5.63 |
| COc1ccc(-c2coc3cc(OC)cc(O)c3c2=O)cc1 | -21.1 |
| Cc1ccccc1C(OCCN(C)C)c1ccccc1 (stereo not drawn) | -23.7 |
| CC(=O)OC(C)(C)[C@@H]1Cc2cc3ccc(=O)oc3cc2O1 | -5.1 |
| CCCCCCCCCCCC1=C(O)C(=O)C=C(O)C1=O | 7.49 |
| COc1c2ccoc2cc2oc(=O)ccc12 | -4.11 |
| COc1ccc(-c2cc(=O)c3c(OC)cccc3o2)cc1 | 2.91 |
| CN(C)CCOC(c1ccc(Cl)cc1)c1ccccn1 (stereo not drawn) | -32.4 |
| NC(=O)NC1NC(=O)NC1=O (stereo not drawn) | -1.93 |
| C[C@@H]1CC[C@@]23CCC4(C)[C@@](C=CC5[C@@]6(C)CCC(=O)C(C)(C)C6CC[C@]54C)(OC2=O)C3[C@H]1C (stereo partly drawn) | -5.72 |
| CCCCNc1ccc(C(=O)OCCN(C)C)cc1 | -26.2 |
| CCN(CC)CCOc1ccc(C(=C(Cl)c2ccccc2)c2ccccc2)cc1 | 29 |
| CC1(C)CC[C@]2(C(=O)O)CC[C@]3(C)C(=CCC4[C@@]5(C)CC[C@@H](O)C(C)(C)C5CC[C@]43C)C2C1 (stereo partly drawn) | -4.75 |
| COc1cc2occ(-c3ccccc3)c(=O)c2c(OC)c1C | -17.3 |
| CN1CCOC(c2ccccc2)c2ccccc2C1 (stereo not drawn) | -40.8 |
| N=C(N)NCCCCN | -0.36 |
| CC(=O)O[C@H]1C[C@@H](OC(C)=O)C(C)(C)[C@@H]2C[C@@H](OC(C)=O)[C@@]3(C)C4=CC(=O)O[C@@H](c5ccoc5)[C@]4(C)CC[C@@H]3[C@@]12C | -9.33 |

| Compound | growth inhibition [%] |
| --- | --- |
| O=C1[C@H](CC[C@H](O)c2ccc(F)cc2)[C@@H](c2ccc(O)cc2)N1c1ccc(F)cc1 | -35.8 |
| C=C1C2CC[C@@]3(C)[C@H](c4ccoc4)OC(=O)C[C@]13O[C@H]1CC(=O)C(C)(C)[C@H](C(O)C(=O)OC)[C@@]21C (stereo partly drawn) | -15.8 |
| CCc1ccc2c(O)c3c(cc2c1C(=O)OC)C(=O)c1c(O)ccc(O)c1C3=O | -9.32 |
| NC(=O)c1ccc[n+]([C@@H]2O[C@H](COP(=O)([O-])OP(=O)(O)OC[C@H]3O[C@@H](n4cnc5c(N)ncnc54)[C@H](OP(=O)(O)O)[C@@H]3O)[C@@H](O)[C@H]2O)c1 [SODIUM beta-NICOTINAMIDE ADENINE DINUCLEOTIDE PHOSPHATE] | -7.03 |
| CC(C)Cc1ccc(C(C)C(=O)O)cc1 (stereo not drawn) | 31.6 |
| COC1=CC(=O)C=C(OC)C1=O | -5.65 |
| COCCc1ccc(OCC(O)CNC(C)C)cc1 (stereo not drawn) | -6.53 |
| COc1ccc(C(=O)c2ccccc2O)c(O)c1 | 2.86 ± 12 |
| O=C(O)C1(C(=O)O)CCC1.[NH2-].[NH2-].[Pt+2] | -4.41 |
| CC(=O)Nc1cccc(O)c1 | 0.678 |
| O=c1c(O)c(-c2ccc(O)c(O)c2)oc2cc(O)cc(O)c12 | -30.7 |
| CC/C(=C(\c1ccccc1)c1ccc(OCCN(C)C)cc1)c1ccccc1 | -6.87 |
| CN[C@@H]1[C@H](O[C@H]2[C@H](O[C@H]3[C@H](O)[C@@H](O)[C@H](NC(=N)N)[C@@H](O)[C@@H]3NC(=N)N)O[C@@H](C)[C@]2(O)CO)O[C@@H](CO)[C@H](O)[C@H]1O | -4.04 |
| NCc1ccc(S(N)(=O)=O)cc1 | 1.77 |
| CC(C)(C)NCC(O)c1cc(O)cc(O)c1 (stereo not drawn) | 20.5 |
| COc1ccc2c(c1)O[C@@H]1COc3cc(OC)c(OC)cc3[C@@H]1C2=O | -9.49 |
| CCOC(=O)[N-]c1c[n+](N2CCOCC2)no1 | -36.1 |
| C#C[C@]1(O)CC[C@H]2[C@@H]3CCC4=C(CCC(=O)C4)[C@H]3CC[C@@]21C | -20.8 |
| COc1cc(OC)c(-c2c(OC)cc(OC)cc2OC)c(OC)c1 | -13.5 |
| CC(C(=O)O)c1ccc(C(=O)c2cccs2)cc1 (stereo not drawn) | -2.54 |

By substructure: those above with sulfur (two)

| Compound | growth inhibition [%] |
| --- | --- |
| NCc1ccc(S(N)(=O)=O)cc1 | 1.77 |
| CC(C(=O)O)c1ccc(C(=O)c2cccs2)cc1 (stereo not drawn) | -2.54 |

(cont.)

| Compound | growth inhibition [%] |
| --- | --- |
| CN1CCC[C@@H]1CCO[C@](C)(c1ccccc1)c1ccc(Cl)cc1 | -28.4 |
| CC(=O)O[C@@H]1C[C@H]2C(C)(C)[C@H](O)C[C@H](O)[C@]2(C)[C@H]2CC[C@@]3(C)[C@H](c4ccoc4)OC(=O)[C@H]4O[C@]43[C@@]21C | 11.1 |
| COc1cc2c(cc1-c1coc3c4c(c(OC)cc3c1=O)OC(C)(C)C=C4)OCO2 | -12.2 |
| O=C(O)c1cccnc1C(=O)O | -3.47 |
| CCN(CCO)CCCC(C)Nc1ccnc2cc(Cl)ccc12 (stereo not drawn) | -6.96 |
| CON | -8.94 |
| CN(C)c1ccc(C(=C2C=CC(=[N+](C)C)C=C2)c2ccc(N(C)C)cc2)cc1 | 84.1 |
| CC(=O)[C@H]1CC[C@H]2[C@@H]3CC=C4C[C@@H](O)CC[C@]4(C)[C@H]3CC[C@]12C | -6.2 |
| COc1cc(O)c2c(=O)cc(-c3ccc(O)cc3)oc2c1 | -5.33 |
| O=c1ccn([C@@H]2O[C@H](COP(=O)(O)OP(=O)(O)OP(=O)(O)O)[C@@H](O)[C@H]2O)c(=O)[nH]1 | -10.4 |
| CC12CCCC(O)(C1)C1CC(C)(C)C1CC2 (stereo not drawn) [beta-CARYOPHYLLENE ALCOHOL] | -2.16 |
| Cc1cc(=O)oc2c(O)c(O)ccc12 | -8.55 |
| CC(COc1ccccc1)NC(C)C(O)c1ccc(O)cc1 (stereo not drawn) | -2.21 |
| CC[C@@H](C(=O)[C@@H](C)[C@@H](O)[C@H](C)CCc1ccc(C)c(O)c1C(=O)O)[C@H]1O[C@](CC)([C@H]2CC[C@](O)(CC)[C@H](C)O2)C[C@@H]1C | -3.79 |
| O=c1c(-c2cc(O)c(O)c(O)c2)coc2cc(O)c(O)c(O)c12 | -23.6 |
| CC(=O)O[C@@H]1CC2C(C)(CC[C@H](O)C2(C)C)C2CC[C@]3(C)C(=CC(=O)O[C@H]3c3ccoc3)C21C (stereo partly drawn) [3beta-HYDROXYDEOXODIHYDRODEOXYGEDUNIN] | 2.83 |
| CC1(C)[C@@H](O)CC[C@]2(C)[C@H]3C(=O)C=C4[C@H]5C[C@@](C)(C(=O)O)CC[C@]5(C)CC[C@@]4(C)[C@]3(C)CC[C@@H]12 [18alpha-GLYCYRRHETINIC ACID] | -3.58 |
| CCCCN1CCCCC1C(=O)Nc1c(C)cccc1C (stereo not drawn) | -3.71 |
